Experimental data from PMC4669748.
No constants are given. Whether binding was seen depends on the method and setting. Binding seen in cells or lysates may run through a third protein. Some binding calls cover weakened binding; strength is not graded here. For some assays here: Tags and fused reporters may be left off the sequences shown.

Protein sequences, listed by entry. Tags and fused reporters are not part of them.
UniProt P31749: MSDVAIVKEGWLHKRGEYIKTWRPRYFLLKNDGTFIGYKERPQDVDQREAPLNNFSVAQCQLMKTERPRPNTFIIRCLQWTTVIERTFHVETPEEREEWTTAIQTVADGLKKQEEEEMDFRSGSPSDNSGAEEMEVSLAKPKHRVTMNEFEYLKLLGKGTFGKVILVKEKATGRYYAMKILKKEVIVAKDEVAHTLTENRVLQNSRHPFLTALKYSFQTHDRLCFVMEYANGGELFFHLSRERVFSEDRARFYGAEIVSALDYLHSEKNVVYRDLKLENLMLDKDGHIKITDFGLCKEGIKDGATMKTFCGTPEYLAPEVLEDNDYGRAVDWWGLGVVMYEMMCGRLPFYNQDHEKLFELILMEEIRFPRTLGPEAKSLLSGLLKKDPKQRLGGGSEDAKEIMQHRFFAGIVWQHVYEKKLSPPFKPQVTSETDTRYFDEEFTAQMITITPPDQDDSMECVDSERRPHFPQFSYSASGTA

Columns and labels:
[1] = biological target: T1, GST-fused N-terminally truncated BTG3, C-terminal domain (amino acids 108-252) (UniProt Q14201); test: pull-down; recombinant GST or GST-fused BTG3 (full-length, C-terminally or N-terminally truncated) incubated with 293 T lysates expressing HA-tagged AKT; pulled down by GSH beads; western blotting; only the target purified
T1 sequence: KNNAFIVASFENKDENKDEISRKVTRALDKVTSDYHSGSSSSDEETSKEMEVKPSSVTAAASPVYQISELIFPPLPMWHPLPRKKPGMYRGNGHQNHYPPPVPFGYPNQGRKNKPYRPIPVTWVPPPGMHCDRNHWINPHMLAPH

[2] = biological target: T2, endogenous BTG3 (human (endogenous in 293T)) (UniProt Q14201); test: co-IP; endogenous proteins from 293 T lysates, immunoprecipitated with anti-BTG3 or anti-AKT (no. 610860; BD Biosciences) antibody
T2 sequence: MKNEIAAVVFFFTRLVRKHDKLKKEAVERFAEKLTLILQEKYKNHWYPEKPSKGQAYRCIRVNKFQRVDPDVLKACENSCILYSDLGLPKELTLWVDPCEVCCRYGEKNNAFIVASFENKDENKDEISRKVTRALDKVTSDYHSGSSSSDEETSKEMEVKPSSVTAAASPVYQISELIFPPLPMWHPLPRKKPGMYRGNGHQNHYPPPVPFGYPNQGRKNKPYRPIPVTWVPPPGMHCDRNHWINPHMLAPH

binding [1] | binding [2] | Substance
binds | – | HA-tagged AKT (from UniProt P31749 1-480)
– | binds | endogenous AKT (from UniProt P31749 1-480)
